In the DeepSol protein solubility set:

Experiment: soluble on expression in E. coli; label from the status in PepcDB or PDB records

SNADVTPLSLGIETLGGIMTKLITRNTTIPTKKSQVFSTAADGQTQVQIKVFQGEREMATSNKLLGQFSLVGIPPAPRGVPQVEVTFDIDANGIVNVSARDRGTGKEQQIVIQSSGGLSKDQIENMIKEAEKNAAEDAKRKELVEVINQAE
soluble on expression in E. coli: soluble
